Paper PMC7395175
Results are given in words; binding and its absence hold for the method and conditions named. Binding seen in cells or lysates may run through a third protein. Here binding means that the protein was enriched with, or labelled near, the bait; the list need not be complete.

Amino acid sequences for entries named in this document (tags omitted).
UniProt Q8VDZ4: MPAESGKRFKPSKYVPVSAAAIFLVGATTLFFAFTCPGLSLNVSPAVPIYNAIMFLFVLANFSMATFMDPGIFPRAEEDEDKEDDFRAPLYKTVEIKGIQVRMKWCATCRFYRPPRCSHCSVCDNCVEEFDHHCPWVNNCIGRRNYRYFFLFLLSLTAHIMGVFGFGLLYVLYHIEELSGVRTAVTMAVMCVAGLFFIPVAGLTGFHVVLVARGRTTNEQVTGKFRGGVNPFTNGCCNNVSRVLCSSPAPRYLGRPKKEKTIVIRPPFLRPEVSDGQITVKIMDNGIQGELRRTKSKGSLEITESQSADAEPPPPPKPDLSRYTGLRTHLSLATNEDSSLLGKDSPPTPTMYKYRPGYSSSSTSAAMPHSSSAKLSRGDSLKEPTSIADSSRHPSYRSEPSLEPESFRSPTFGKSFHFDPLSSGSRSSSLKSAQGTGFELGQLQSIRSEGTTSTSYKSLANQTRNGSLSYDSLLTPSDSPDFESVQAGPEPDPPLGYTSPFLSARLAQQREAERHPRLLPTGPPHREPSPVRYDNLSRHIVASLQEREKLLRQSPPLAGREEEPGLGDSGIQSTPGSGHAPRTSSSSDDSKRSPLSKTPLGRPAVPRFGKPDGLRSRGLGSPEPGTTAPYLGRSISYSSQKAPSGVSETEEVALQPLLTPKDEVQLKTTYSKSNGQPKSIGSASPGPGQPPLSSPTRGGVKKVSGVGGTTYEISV

B1: zDHHC20 (endogenous, HEK cells) (enzyme, UniProt Q5W0Z9 1-365)
chain: MAPWTLWRCCQRVVGWVPVLFITFVVVWSYYAYVVELCVFTIFGNEENGKTVVYLVAFHLFFVMFVWSYWMTIFTSPASPSKEFYLSNSEKERYEKEFSQERQQEILRRAARALPIYTTSASKTIRYCEKCQLIKPDRAHHCSACDSCILKMDHHCPWVNNCVGFSNYKFFLLFLLYSLLYCLFVAATVLEYFIKFWTNELTDTRAKFHVLFLFFVSAMFFISVLSLFSYHCWLVGKNRTTIESFRAPTFSYGPDGNGFSLGCSKNWRQVFGDEKKYWLLPIFSSLGDGCSFPTRLVGMDPEQASVTNQNEYARSSGSNQPFPIKPLSESKNRLLDSESQWLENGAEEGIVKSGTNNHVTVAIEN
B2: O-GlcNAc transferase (OGT), endogenous, H9c2 cells (enzyme, UniProt P56558 1-1036)
chain: MASSVGNVADSTGLAELAHREYQAGDFEAAERHCMQLWRQEPDNTGVLLLLSSIHFQCRRLDRSAHFSTLAIKQNPLLAEAYSNLGNVYKERGQLQEAIEHYRHALRLKPDFIDGYINLAAALVAAGDMEGAVQAYVSALQYNPDLYCVRSDLGNLLKALGRLEEAKACYLKAIETQPNFAVAWSNLGCVFNAQGEIWLAIHHFEKAVTLDPNFLDAYINLGNVLKEARIFDRAVAAYLRALSLSPNHAVVHGNLACVYYEQGLIDLAIDTYRRAIELQPHFPDAYCNLANALKEKGSVAEAEDCYNTALRLCPTHADSLNNLANIKREQGNIEEAVRLYRKALEVFPEFAAAHSNLASVLQQQGKLQEALMHYKEAIRISPTFADAYSNMGNTLKEMQDVQGALQCYTRAIQINPAFADAHSNLASIHKDSGNIPEAIASYRTALKLKPDFPDAYCNLAHCLQIVCDWTDYDERMKKLVSIVAEQLEKNRLPSVHPHHSMLYPLSHGFRKAIAERHGNLCLDKINVLHKPPYEHPKDLKLSDGRLRVGYVSSDFGNHPTSHLMQSIPGMHNPDKFEVFCYALSPDDGTNFRVKVMAEANHFIDLSQIPCNGKAADRIHQDGIHILVNMNGYTKGARNELFALRPAPIQAMWLGYPGTSGALFMDYIITDQETSPAEVAEQYSEKLAYMPHTFFIGDHANMFPHLKKKAVIDFKSNGHIYDNRIVLNGIDLKAFLDSLPDVKIVKMKCPDGGDNADTTNTALNMPVIPMNTIAEAVIEMINRGQIQITINGFSISNGLATTQINNKAATGEEVPRTIIVTTRSQYGLPEDAIVYCNFNQLYKIDPSTLQMGANILKRVPNSVLWLLRFPAVGEPNIQQYAQNMGLPQNRIIFSPVAPKEEHVRRGQLADVCLDTPLCNGHTTGMDVLWAGTPMVTMPGETLASRVAASQLTCLGCLELIAKSRQEYEDIAVKLGTDLEYLKKIRGKVWKQRISSPLFNTKQYTMELERLYLQMWEHYAAGNKPDHMIKPVEVTESA

Key:
[1] = biological target: zDHHC5-BirA (BirA fused at the intracellular C terminus of zDHHC5) (UniProt Q8VDZ4); assay: proximity labelling; BirA fusions of zDHHC5 (or BirA alone) in HEK cells, 50 μM biotin overnight, streptavidin Sepharose, LC-MS/MS
[2] = biological target: BirA-zDHHC5 (BirA fused at the intracellular N terminus of zDHHC5) (UniProt Q8VDZ4); assay: as above
[3] = biological target: zDHHC5-BirA (BirA fused at the intracellular C terminus of zDHHC5) (UniProt Q8VDZ4); assay: proximity labelling; BirA-zDHHC5 and zDHHC5-BirA in the cardiomyoblast cell line H9c2, proximity biotinylation
[4] = biological target: BirA-zDHHC5 (BirA fused at the intracellular N terminus of zDHHC5) (UniProt Q8VDZ4); assay: as above

Binder	binding [1]	binding [2]	binding [3]	binding [4]
B1	binds	binds	–	–
B2	–	–	binds	binds
